For this data set the following is noted: pig, PAMPA, pH 7.4. The source says: An important feature for drugs targeting the brain is their ability to cross the BBB. The parallel artificial membrane permeability assay (PAMPA) is a high-throughput screening tool applicable for prediction of passive transport across BBB [57]. […] These include mainly (i) the different composition of the human phospholipid bilayer may cause deviation in predicted permeability, (ii) omitting the absorption of compounds that are actively transported by influx transporters and pumped-out by various efflux mechanisms with the glycoprotein P at the forefront or (iii) transport through the paracellular route which is mostly exploited by small hydrophobic molecules. […]
PAMPA (the parallel artificial membrane permeability assay) is a high-throughput screening tool applicable for prediction of the passive transport of potential drugs across the blood-brain barrier (BBB). […] The concentration of the tested compound in both donor and the acceptor wells were assessed after 3, 4, 5 and 6 h of incubation in quadruplicate using the UV plate reader Synergy HT (Biotek, USA) at the maximum absorption wavelength of each compound (n = 3). Besides that, the solution of theoretical compound concentration, simulating the equilibrium state, established if the membrane was ideally permeable was prepared and assessed as well.
(In general: PAMPA measures passive passage across an artificial lipid membrane.)

Molecules are shown by their SMILES.

On to `COc1cc2c(cc1OC)C(=O)C(CC1CCN(Cc3ccccc3)CC1)C2` (stereo not shown) [Donepezil, donepezil, reference compound], for which the Pe was 21 ×10⁻⁶ cm/s.
